Measurements published in article PMC6418270, “The pharmacological and functional characterization of the serotonergic system in Anopheles gambiae and Aedes aegypti: influences on flight and blood-feeding behavior” (Scientific Reports, 2019).
Counter-ions that a name gives are not always drawn.

Sequences of proteins named here, by UniProt entry; tags and fusion partners are left off.
UniProt A7UR33, entry or part of it: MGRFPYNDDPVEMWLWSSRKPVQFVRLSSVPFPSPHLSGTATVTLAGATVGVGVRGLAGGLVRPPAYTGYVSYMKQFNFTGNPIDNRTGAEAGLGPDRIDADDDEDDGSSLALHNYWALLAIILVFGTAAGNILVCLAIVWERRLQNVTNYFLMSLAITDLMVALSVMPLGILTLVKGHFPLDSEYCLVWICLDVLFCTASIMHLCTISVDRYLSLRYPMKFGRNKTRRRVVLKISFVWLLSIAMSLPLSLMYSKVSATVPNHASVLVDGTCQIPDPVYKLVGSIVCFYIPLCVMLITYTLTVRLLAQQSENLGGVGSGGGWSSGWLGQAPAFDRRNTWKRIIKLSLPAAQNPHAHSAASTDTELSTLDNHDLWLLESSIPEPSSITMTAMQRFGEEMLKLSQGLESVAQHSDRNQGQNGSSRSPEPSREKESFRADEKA
UniProt A0A1S4GEY1, entry or part of it: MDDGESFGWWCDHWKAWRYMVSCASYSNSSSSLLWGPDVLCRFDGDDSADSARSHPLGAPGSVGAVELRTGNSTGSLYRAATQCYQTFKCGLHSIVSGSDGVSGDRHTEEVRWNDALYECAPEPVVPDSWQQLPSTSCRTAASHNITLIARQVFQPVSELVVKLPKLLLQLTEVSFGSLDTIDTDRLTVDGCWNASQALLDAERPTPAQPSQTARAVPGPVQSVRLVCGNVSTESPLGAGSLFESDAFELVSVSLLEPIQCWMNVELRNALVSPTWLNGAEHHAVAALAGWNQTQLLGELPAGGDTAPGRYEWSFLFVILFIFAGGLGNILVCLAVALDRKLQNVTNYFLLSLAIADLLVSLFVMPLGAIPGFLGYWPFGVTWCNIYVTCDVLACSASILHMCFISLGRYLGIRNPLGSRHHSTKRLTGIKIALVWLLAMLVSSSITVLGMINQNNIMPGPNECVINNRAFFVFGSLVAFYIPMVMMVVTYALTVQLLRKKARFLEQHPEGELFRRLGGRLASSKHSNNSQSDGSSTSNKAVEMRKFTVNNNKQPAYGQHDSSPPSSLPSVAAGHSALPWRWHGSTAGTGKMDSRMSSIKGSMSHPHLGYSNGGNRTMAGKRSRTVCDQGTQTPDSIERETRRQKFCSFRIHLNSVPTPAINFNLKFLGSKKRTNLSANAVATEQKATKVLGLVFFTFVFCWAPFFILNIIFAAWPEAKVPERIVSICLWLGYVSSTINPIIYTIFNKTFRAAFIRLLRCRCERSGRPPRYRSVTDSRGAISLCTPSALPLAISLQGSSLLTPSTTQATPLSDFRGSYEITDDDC

Key:
AGAP002229 = AGAP002229 (Anopheles gambiae, UniProt A7UR33); assay: Fluo-4 calcium assay in CRE-luc2P HEK-293 cells expressing AGAP002229; format: cell-based
Experimental: A week post-transfection, selective pressure was applied with […] of G418 antibiotic to generate stable lines.
1 × 10^6 cells per well were seeded into a 96-well black all-clear bottom plate and incubated overnight in 10% FBS/90% DMEM at 37 °C with an atmosphere of 5% CO2. The following day, 2X Fluo-4 Direct calcium dye (Molecular Devices LLC, San Jose, CA) was added to each well and incubated in the same conditions for 45 minutes before the assay was completed. At this time, serial dilutions of the test compounds were prepared in a 96-well clear flat bottom plate. […] Fluorescence measurements continued to be recorded for a total of 120 seconds at 2-second intervals. When testing antagonists, cells were treated with the compound prior to determination of fluorescence levels.
Luminescence and calcium assay data were normalized and fitted with a non-linear least squares regression to generate dose-response curves, EC50 and IC50 values. Unpaired t-tests or Dunnett’s multiple comparisons test were performed accordingly to compare EC50 or IC50 values. Locomotion was measured based on the distance required for flight recovery. […] In the blood-feeding experiments, the percentage of blood-fed mosquitoes was calculated for each treatment group. […] Size of bloodmeals were compared with an unpaired t-test or Mann-Whitney test after normality was evaluated with the Kolmogorov-Smirnov test. […]

AGAP002232 = AGAP002232 (Anopheles gambiae, UniProt A0A1S4GEY1); assay: Fluo-4 calcium assay in CRE-luc2P HEK-293 cells expressing AGAP002232; format: cell-based
Experimental: The GloResponse™ CRE-luc2P human embryonic kidney (HEK-293) reporter cells were incubated at 37 °C with an atmosphere of 5% CO2, and maintained in Dulbecco’s Modified Eagle Medium (DMEM) supplemented with 10% fetal bovine serum (FBS) and […] hygromycin B. Transfection of the HEK-293 cells with 1 μg of plasmid DNA was performed with Amaxa Nucleofector™ technology (Lonza, Basel, Switzerland) as per manufacturer’s instructions. A week post-transfection, selective pressure was applied with […] of G418 antibiotic to generate stable lines.
1 × 10^6 cells per well were seeded into a 96-well black all-clear bottom plate and incubated overnight in 10% FBS/90% DMEM at 37 °C with an atmosphere of 5% CO2. […] Fluorescence levels were determined with a FlexStation3 microplate reader, with excitation and emission wavelengths set to 485 and 525 nm, respectively (Molecular Devices LLC). Basal fluorescence levels were measured for 17 seconds, at which time, 25 μl of the agonist compound was added. Fluorescence measurements continued to be recorded for a total of 120 seconds at 2-second intervals. When testing antagonists, cells were treated with the compound prior to determination of fluorescence levels.
Luminescence and calcium assay data were normalized and fitted with a non-linear least squares regression to generate dose-response curves, EC50 and IC50 values. […]

SMILES: CN1CCC(=C2c3ccccc3C=Cc3ccccc32)CC1 [cyproheptadine, cyproheptadine hydrochloride sesquihydrate]
- IC50 (AGAP002229): 0.13 µM
- IC50 (AGAP002232): 5.29 µM
